Laboratory results published in the supplement of paper PMC7411640.
Counter-ions that a name gives are not always drawn. Some of the results follow. Repeats in this data set agree poorly, so a single value says little.

Test system: MDA-MB-468
Assay: phospho-S6 immunofluorescence (DAPI-normalised), per-plate z-score; higher = higher phospho-S6 signal (less pathway suppression)
Conditions: 24 h
Method: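 GPCR-targeted compound library (MedChemExpress HY-L006) tested on MDA-MB-468 PTEN-null TNBC cells in 384-well plates at 0.1, 1 or 10 uM, combined with vehicle, GDC0941 450 nM or lapatinib 1 uM, for 24 h. Phospho-S6 (S240/244) immunofluorescence normalised to DAPI and expressed as a per-plate z-score; values are the mean of biological triplicates.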

[1] = compound 0.1 µM, co-treatment: GDC0941 450 nM
[2] = compound 0.1 µM, co-treatment: lapatinib 1 uM
[3] = compound 0.1 µM, co-treatment: vehicle
[4] = compound 1 µM, co-treatment: GDC0941 450 nM
[5] = compound 1 µM, co-treatment: lapatinib 1 uM
[6] = compound 1 µM, co-treatment: vehicle
[7] = compound 10 µM, co-treatment: GDC0941 450 nM
[8] = compound 10 µM, co-treatment: lapatinib 1 uM
[9] = compound 10 µM, co-treatment: vehicle

Row | SMILES | phospho-S6 immunofluorescence (z-score) [1] | phospho-S6 immunofluorescence (z-score) [2] | phospho-S6 immunofluorescence (z-score) [3] | phospho-S6 immunofluorescence (z-score) [4] | phospho-S6 immunofluorescence (z-score) [5] | phospho-S6 immunofluorescence (z-score) [6] | phospho-S6 immunofluorescence (z-score) [7] | phospho-S6 immunofluorescence (z-score) [8] | phospho-S6 immunofluorescence (z-score) [9]
1 | CCCSc1nc(N[C@@H]2C[C@H]2c2ccc(F)c(F)c2)c2nnn([C@@H]3C[C@H](OCCO)[C@@H](O)[C@H]3O)c2n1 [Ticagrelor] | 1.97 | 1.13 | 1.02 | 0.34 | 0.77 | 1.57 | -1.29 | 0.02 | 1.13
2 | CCCNS(=O)(=O)Nc1ncnc(OCCOc2ncc(Br)cn2)c1-c1ccc(Br)cc1 [Macitentan] | 0.74 | 0.69 | -0.12 | 0.06 | -0.21 | 0.45 | 0.32 | 0.71 | -0.16
3 | CN1[C@@H]2CC[C@H]1C[C@@H](OC(=O)c1c[nH]c3ccccc13)C2 [Tropisetron (Hydrochloride)] | -0.59 | -0.65 | 0.48 | 0.1 | 0.64 | -0.23 | 0.95 | -0.2 | -0.04
4 | CCN1CCC[C@H]1CNC(=O)c1cc(S(N)(=O)=O)ccc1OC [Levosulpiride] | -0.31 | -0.32 | 0.05 | 1.42 | 0.42 | 0.31 | 0.22 | 0.89 | -0.63
5 | CC[C@H](C)[C@H](NC(=O)[C@H](Cc1ccc(O)cc1)NC(=O)[C@@H](NC(=O)[C@H](CCCNC(=N)N)NC(=O)[C@@H](N)CC(=O)O)C(C)C)C(=O)N[C@@H](Cc1c[nH]cn1)C(=O)N1CCC[C@H]1C(=O)O [Angiotensin (1-7)] | -2.62 | -1.65 | -2.7 | -1.96 | -0.68 | -1.58 | 0.11 | 0.71 | -0.4
6 | COc1ccccc1Oc1c(NS(=O)(=O)c2ccc(C)cn2)nc(-c2ccncc2)nc1OC [Avosentan] | -0.82 | -0.36 | -0.24 | -0.16 | -0.15 | -1.26 | -0.03 | -0.67 | -0.65
7 | Cc1nc2c([nH]1)-c1ccccc1N(C(=O)c1ccc(NC(=O)c3ccccc3-c3ccccc3)cc1)CC2 [Conivaptan (hydrochloride)] | 0.55 | -1.33 | -0.03 | 1.94 | -0.12 | 0.62 | 0.65 | 0.52 | 0.94
8 | CC(N)(C(=O)O)c1ccc(C(=O)O)cc1 (racemic) | 0.77 | 0.74 | 0.38 | 0.51 | -0.15 | 0.82 | 0.62 | 0 | 0.84
9 | COc1ccc(CC(C)NCC(O)c2ccc(O)c(NC=O)c2)cc1 (stereo unspecified) [Formoterol (Fumarate)] | 0.28 | 0.73 | 0.44 | 1.53 | 2.91 | 0.58 | 1.08 | 0.77 | 0.16
10 | CC1(C)O[C@@H]2C[C@H]3[C@@H]4C[C@H](F)C5=CC(=O)C=C[C@]5(C)[C@@]4(F)[C@@H](O)C[C@]3(C)[C@]2(C(=O)CO)O1 [Fluocinolone (Acetonide)] | -1.34 | -0.12 | 1.17 | -2.21 | 0.7 | 0.44 | -0.92 | 0.83 | -0.53
11 | NC1=NCC2c3ccccc3Cc3ccccc3N12 (stereo unspecified) [Epinastine] | 1.62 | 1.33 | -0.5 | 1.49 | 1.11 | 0.14 | -0.05 | -0.81 | 0.35
12 | CC1=C(C)C(=O)C(C(CCCCCC(=O)O)c2ccccc2)=C(C)C1=O (stereo unspecified) [Seratrodast] | -0.75 | -0.43 | 0.07 | -0.7 | 0.01 | 0.02 | 1.01 | 1.15 | 0.08
13 | O=C(c1ccc(OCCCc2c[nH]cn2)cc1)C1CC1 [Ciproxifan (maleate)] | 0.77 | -0.42 | 1 | 1.1 | 0.37 | 0.28 | -0.58 | -0.62 | 0.21
14 | COc1ccc(S(=O)(=O)Nc2c(C)cc(C)cc2C)cc1 | -0.84 | -1 | -0.96 | -0.39 | -0.12 | -1.88 | 0.04 | -0.37 | -1.05
15 | COc1cc(NC(=O)c2ccccn2)ccc1Cl | -0.61 | 0.6 | 0.57 | 0.72 | 0.94 | 0.91 | -0.65 | -0.21 | 0.28
16 | COC(=O)N(C)c1c(N)nc(-c2nn(Cc3ccccc3F)c3ncccc23)nc1N [Riociguat] | -1.04 | -0.85 | -0.85 | -1.06 | -0.1 | -0.74 | -0.84 | 0.03 | -0.56
17 | CCCc1nc(C(C)(C)O)c(C(=O)OCc2oc(=O)oc2C)n1Cc1ccc(-c2ccccc2-c2nnn[nH]2)cc1 [Olmesartan (medoxomil)] | 0.4 | 0.18 | 0.06 | -0.05 | -0.37 | 0.51 | -0.4 | -0.27 | -0.03
18 | CC(C)c1cc(-c2ccc(F)c3ccccc23)nc(N)n1 | -0.08 | -0.27 | 0.58 | 0.05 | 1.62 | 0.09 | -1.03 | 1.27 | 1.08
19 | CCNC(=O)[C@@H]1CCCN1C(=O)[C@H](CCCNC(=N)N)NC(=O)[C@H](CC(C)C)NC(=O)[C@@H](COC(C)(C)C)NC(=O)[C@H](Cc1ccc(O)cc1)NC(=O)[C@H](CO)NC(=O)[C@H](Cc1c[nH]c2ccccc12)NC(=O)[C@H](Cc1cnc[nH]1)NC(=O)[C@@H]1CCC(=O)N1 [Buserelin (Acetate)] | -0.16 | 0.92 | -0.12 | 0.77 | 0.04 | -0.08 | 0.78 | 0.63 | 0.53
20 | CN(C)[C@@H]1CCc2[nH]c3ccc(NC(=O)c4ccc(F)cc4)cc3c2C1 | -0.18 | -0.01 | -0.67 | -0.03 | -0.07 | -1.15 | 0.67 | -1.38 | -0.54

Row | SMILES | phospho-S6 immunofluorescence (z-score) [1] | phospho-S6 immunofluorescence (z-score) [2] | phospho-S6 immunofluorescence (z-score) [3] | phospho-S6 immunofluorescence (z-score) [4] | phospho-S6 immunofluorescence (z-score) [5] | phospho-S6 immunofluorescence (z-score) [6] | phospho-S6 immunofluorescence (z-score) [7] | phospho-S6 immunofluorescence (z-score) [8] | phospho-S6 immunofluorescence (z-score) [9]
21 | OCC1OC(n2cnc3c(NC4CCCCC4)ncnc32)C(O)C1O (stereo unspecified) [N6-Cyclohexyladenosine] | 1.54 | 0.8 | 0.35 | 1.32 | 0.72 | 1.38 | -0.37 | 1.37 | 0.6
22 | CCCC(=O)OC(CNC(C)(C)C)COc1nsnc1N1CCOCC1 (racemic) [(RS)-Butyryltimolol] | -0.48 | -1.57 | -1.23 | 0.16 | -1.35 | -0.43 | 0.09 | -0.58 | -0.47
23 | C[C@@H](O[C@H]1OCCN(Cc2nn(P(=O)(O)O)c(=O)[nH]2)[C@H]1c1ccc(F)cc1)c1cc(C(F)(F)F)cc(C(F)(F)F)c1 [Fosaprepitant (dimeglumine)] | -1.13 | -0.41 | 0.28 | -1.24 | -1.12 | -0.4 | -2.28 | -0.65 | 0.39
24 | CC(C)[N+]1(C)[C@@H]2CC[C@H]1C[C@@H](OC(=O)C(CO)c1ccccc1)C2 (stereo partly specified) [Ipratropium (bromide)] | -1.07 | -0.05 | -1.1 | -1.66 | -0.08 | -1.49 | -0.02 | 0.28 | -0.61
25 | COc1cc(NC(=O)CCN2CCC(OC(=O)Nc3ccccc3-c3ccccc3)CC2)c(Cl)cc1CNC[C@H](O)c1ccc(O)c2[nH]c(=O)ccc12 [Batefenterol] | 0.62 | 2.79 | 1.29 | -0.34 | 0.99 | 1.74 | -3.26 | -4.13 | 0.38
26 | C[N+](C)(C)CCOC(N)=O [Carbamoylcholine (chloride)] | 1.23 | -0.52 | 1.02 | -0.65 | -0.16 | 0.62 | 0.06 | 0.02 | 0.87
27 | NC(N)=Nc1nc(CSCCN/C=N/S(=O)(=O)c2ccc(Br)cc2)cs1 [Ebrotidine] | 0.73 | -0.3 | 0.14 | -0.89 | -0.64 | 0.12 | -4.2 | -3.36 | -1.7
28 | COC(=O)[C@@H]1[C@H]2C[C@H]3c4[nH]c5ccccc5c4CCN3C[C@@H]2CC[C@@H]1O [Yohimbine (Hydrochloride)] | 0.53 | 1.29 | 0.93 | 1.19 | 0.43 | 0.59 | 0.62 | 0.56 | 1.59
29 | Cc1ccccc1C(=O)Nc1ccc(C(=O)N2CCCC(O)c3cc(Cl)ccc32)c(C)c1 (stereo unspecified) [Tolvaptan] | -1.73 | -0.73 | -0.31 | 0.22 | -1.57 | 0.34 | 0.01 | -1.6 | -0.25
30 | CC(C)Cc1ccc([C@@H](C)C(=O)NS(C)(=O)=O)cc1 [Reparixin] | -1.1 | -0.28 | -1.43 | -0.1 | -0.83 | -0.69 | 0.03 | 0.34 | -1.14
31 | CN1CCN2c3c(cccc31)[C@@H]1CN(CCCC(=O)c3ccc(F)cc3)CC[C@@H]12 [lumateperone (Tosylate)] | -7.46 | -3.9 | -5.01 | -6.1 | -7.97 | -6.43 | -3.44 | -3.22 | -5.62
32 | COc1cc(C(=O)NS(=O)(=O)c2ccccc2C)ccc1Cc1cn(C)c2ccc(NC(=O)OC3CCCC3)cc12 [Zafirlukast] | 0.63 | 0.89 | 1.29 | 0.44 | 1.1 | 1.31 | -2.01 | -0.41 | 0.19
33 | COc1ccccc1N1CCN(CCN(C(=O)C2CCCCC2)c2ccccn2)CC1 | -0.61 | -1.61 | -0.41 | -0.45 | 1.19 | -1.94 | -0.49 | 0.26 | -0.79
34 | c1ccc2c(c1)OCC(CN1CCCCC1)O2 (stereo unspecified) [Piperoxan (hydrochloride)] | 1.08 | 1.29 | 0.86 | 0.91 | 0.25 | 0.71 | 0.28 | 0.61 | 0.8
35 | CN(C)C(=O)CCSC(SCCC(=O)O)c1cccc(/C=C/c2ccc3ccc(Cl)cc3n2)c1 (stereo unspecified) [MK-571 (sodium salt)] | 1.18 | 0.52 | 1.27 | 0.8 | 0.35 | 1.36 | -0.65 | 0.9 | 1.28
36 | O=C(O)CCc1ccc(NCc2cccc(Oc3ccccc3)c2)cc1 | 0.73 | 0.84 | 1.06 | 0.71 | 0.71 | 0.63 | -0.04 | 0.32 | 1.24
37 | CCN(CCCCOC(=O)c1ccc(OC)c(OC)c1)C(C)Cc1ccc(OC)cc1 (stereo unspecified) [Mebeverine (hydrochloride)] | -1.33 | -1.34 | -1.02 | -1.18 | 0.23 | -1.74 | 0.43 | 0.05 | -0.85
38 | Cc1sc(C)c(C(=O)NC2(c3ccc(C(=O)O)cc3)CC2)c1Cc1ccc(C(F)(F)F)cc1 | -0.88 | -0.8 | 1.08 | -1.5 | -0.68 | -0.21 | -1.42 | -0.58 | 0.73
39 | OCCOCCN1CCN(C(c2ccccc2)c2ccccc2)CC1 [Decloxizine (dihydrochloride)] | -1.03 | -1.46 | -0.84 | -0.09 | -0.56 | 0.19 | 0.55 | -0.6 | -0.19

Quoted at random: two entries already listed
Row | SMILES | phospho-S6 immunofluorescence (z-score) [1] | phospho-S6 immunofluorescence (z-score) [2] | phospho-S6 immunofluorescence (z-score) [3] | phospho-S6 immunofluorescence (z-score) [4] | phospho-S6 immunofluorescence (z-score) [5] | phospho-S6 immunofluorescence (z-score) [6] | phospho-S6 immunofluorescence (z-score) [7] | phospho-S6 immunofluorescence (z-score) [8] | phospho-S6 immunofluorescence (z-score) [9]
32 | COc1cc(C(=O)NS(=O)(=O)c2ccccc2C)ccc1Cc1cn(C)c2ccc(NC(=O)OC3CCCC3)cc12 [Zafirlukast] | 0.63 | 0.89 | 1.29 | 0.44 | 1.1 | 1.31 | -2.01 | -0.41 | 0.19
36 | O=C(O)CCc1ccc(NCc2cccc(Oc3ccccc3)c2)cc1 | 0.73 | 0.84 | 1.06 | 0.71 | 0.71 | 0.63 | -0.04 | 0.32 | 1.24
